For the assay, the system named is P388 leukemia ip, CD2F1 mice, survival T/C. Briefly: NCI In Vivo Anticancer Drug Screen. Data for tumor model P388 Leukemia (intraperitoneal) in CD2F1 (CDF1) mice. The settings on record: T/C endpoint: median survival time, higher T/C = longer survival.
The mark [1] stands for this setting: dose: 100.0 mg/kg/injection, schedule: Q01DX009 (ip), vehicle: saline with Tween-80.
Where [2] appears, read: dose: 200.0 mg/kg/injection, schedule: Q01DX009 (ip), vehicle: saline with Tween-80.
Setting [3] is: dose: 60.0 mg/kg/injection, schedule: Q01DX005 (ip), vehicle: saline with Tween-80.
The mark [4] stands for this setting: dose: 120.0 mg/kg/injection, schedule: Q01DX005 (ip), vehicle: saline with Tween-80.
Where [5] appears, read: dose: 240.0 mg/kg/injection, schedule: Q01DX005 (ip), vehicle: saline with Tween-80.
Where [6] appears, read: dose: 200.0 mg/kg/injection, schedule: Q01DX005 (ip), vehicle: Klucel (hydroxypropylcellulose) (HPC).
[7] abbreviates: dose: 50.0 mg/kg/injection, schedule: Q01DX009 (ip), vehicle: saline with Tween-80.
The mark [8] stands for this setting: dose: 400.0 mg/kg/injection, schedule: Q04DX002 (ip), vehicle: saline with Tween-80.
[9] abbreviates: dose: 12.5 mg/kg/injection, schedule: Q01DX005 (ip), vehicle: Klucel (hydroxypropylcellulose) (HPC).
[10] abbreviates: dose: 50.0 mg/kg/injection, schedule: Q01DX005 (ip), vehicle: Klucel (hydroxypropylcellulose) (HPC).
Setting [11] is: dose: 100.0 mg/kg/injection, schedule: Q01DX005 (ip), vehicle: Klucel (hydroxypropylcellulose) (HPC).
Setting [12] is: dose: 200.0 mg/kg/injection, schedule: Q01DX005 (ip), vehicle: saline with Tween-80.
[13] abbreviates: dose: 240.0 mg/kg/injection, schedule: Q01DX005 (ip), vehicle: saline.
[14] abbreviates: dose: 100.0 mg/kg/injection, schedule: Q01DX009 (ip), vehicle: Klucel (hydroxypropylcellulose) (HPC).
Setting [15] is: dose: 200.0 mg/kg/injection, schedule: Q01DX005 (ip), vehicle: DMSO.

The list is a part of this screen's results and no random one: it is rich in T/C values a quarter to a half above the control, in often repeated tests (any T/C) and in doses without a T/C. Further doses and runs are listed elsewhere. T/C is the treated group as % of the vehicle group. Some doses have a count of surviving animals in place of a T/C: the source holds a T/C of zero for them, seemingly a mark for toxic or unscored doses. Some doses without a T/C left all or most animals alive at the check, yet need not have been tolerated: survival well below the control is almost never listed, so the zero probably covers shortened survival too. Counts of survivors are from the toxicity check (mostly the fifth day) where no day follows; animals may have died later. Schedule codes are those of the source, taken here to give the interval after Q, in days (D) or hours (H), and the number of doses after X. Some entries were tested several times; their values stand side by side, smallest first. Where survival is the endpoint, the PubChem record calls one and a half times the control and up active, and a quarter to a half above the control has no call in these data; cut-offs in other NCI protocols can differ. Some T/C values are followed by the survivors on the day toxicity was checked, most often the fifth; without a count, all were alive then.

Consider `Nc1nc(N)c(-c2ccc(Cl)cc2)c(COc2ccc(NC(=O)c3ccc(NC(=O)CCl)cc3)cc2)n1`, for which the survivor count (dose: 100.0 mg/kg/injection, schedule: Q01DX001 (ip), vehicle: saline with Tween-80) is 1 of 6; the survivor count (dose: 200.0 mg/kg/injection, schedule: Q01DX001 (ip), vehicle: saline with Tween-80) was 1 of 6; the survivor count (dose: 400.0 mg/kg/injection, schedule: Q01DX001 (ip), vehicle: saline with Tween-80) is on record as 0 of 6.

Consider `CCCCNC(=S)NC(=O)c1ccccc1`, for which the survivor count is 5 of 6 under setting [1] and 0 of 6 under setting [2].

On to `N#CC(=O)Nc1cccc(Cl)c1`, for which the survivor count reads like this: under setting [3], 0 of 6; under setting [4], 0 of 6; under setting [5], 0 of 6.

As for `Cc1nc([N+](=O)[O-])c(Sc2nncc(-c3ccccc3)n2)n1C`, the survivor count under setting [6] is 6 of 6.

On to `COCCCNC1=C(C#N)C(=O)NC(c2cccc([N+](=O)[O-])c2)S1` (configuration not stated), for which the T/C runs as follows: under setting [7], 125 % of control; under setting [1], 133 % of control; under setting [2], 137 % of control; (dose: 400.0 mg/kg/injection, schedule: Q01DX009 (ip), vehicle: saline with Tween-80) 142 % of control.

In the case of `COc1cc2ccnc(C=O)c2cc1OC`, the survivor count under setting [2] was 3 of 6.

Take `CCOC1(C)OC2OC(COC(c3ccccc3)(c3ccccc3)c3ccccc3)C(OC(=O)c3ccccc3)C(OC(=O)c3ccccc3)C2O1` (configuration not stated): the survivor count reads like this: (dose: 100.0 mg/kg/injection, schedule: Q01DX009 (ip), vehicle: distilled water + Tween-80) 6 of 6; (dose: 200.0 mg/kg/injection, schedule: Q01DX009 (ip), vehicle: distilled water + Tween-80) 6 of 6.

Take `COc1ccc(/C(=N/N)c2ccccc2)cc1`: the survivor count (dose: 400.0 mg/kg/injection, schedule: Q04DX003 (ip), vehicle: Klucel (hydroxypropylcellulose) (HPC)) is 0 of 6.

As for `CN(C)C12CCCCCCC1S(=O)(=O)C2` (configuration not stated), the survivor count runs as follows: (dose: 200.0 mg/kg/injection, schedule: Q04DX002 (ip), vehicle: saline with Tween-80) 3 of 6; under setting [8], 0 of 6.

Take `C1=NCCCN2CCCCC12` (configuration not stated): the survivor count (dose: 80.0 mg/kg/injection, schedule: Q01DX009 (ip), vehicle: saline) is on record as 2 of 6.

As for `C[CH2][Sn]([CH2]C)([S]c1nc(O)cc(=O)[nH]1)[S]c1nc(O)cc(=O)[nH]1`, the T/C is, setting by setting: (dose: 6.25 mg/kg/injection, schedule: Q01DX005 (ip), vehicle: Klucel (hydroxypropylcellulose) (HPC)) 138 % of control [5 of 6 alive]; under setting [9], 125 % of control. The survivor count under setting [9] was 3 of 6, the survivor count under setting [10] is recorded as 0 of 6, the survivor count under setting [11] is recorded as 0 of 6 and the survivor count under setting [6] is 0 of 6.

As for `CCOC(=O)N1C=CC(=C2C(=C3C=CN(C(=O)OCC)C=C3)C(=C3C=CN(C(=O)OCC)C=C3)C2=C2C=CN(C(=O)OCC)C=C2)C=C1`, under setting [12], the T/C was 134 % of control and the survivor count is listed as 0 of 6. In addition, the survivor count (dose: 400.0 mg/kg/injection, schedule: Q01DX005 (ip), vehicle: saline with Tween-80) was 0 of 6.

Consider `S=CN1CCCCC1`, for which the survivor count by setting is: under setting [3], 0 of 6; under setting [4], 0 of 6; under setting [5], 0 of 6.

As for `COc1cc2c(cc1OC)C13CCN4CC5=CCOC(CC(=O)O)C(C5CC41)C3N2` (configuration not stated), the survivor count was 2 of 6 under setting [4], 0 of 6 under setting [5] and 0 of 6 under setting [13].

For the compound `C#CCOc1ccccc1/C(Cl)=N/Nc1ccc([N+](=O)[O-])cc1[N+](=O)[O-]`, the survivor count runs as follows: (dose: 12.5 mg/kg/injection, schedule: Q01DX009 (ip), vehicle: saline with Tween-80) 6 of 6; under setting [7], 6 of 6; under setting [1], 6 of 6; under setting [2], 6 of 6.

Regarding `Cc1ccc(-n2c(C)nc3[nH]cc(C)c3c2=N)cc1`, the survivor count by setting is: under setting [10], 2 of 6; under setting [11], 0 of 6; under setting [6], 0 of 6.

Turning to `CNP1(NC)=N[P@@](NC)(N2CC2)=NP(NC)(N2CC2)=N1` (some centres not stated), the T/C (dose: 3.75 mg/kg/injection, schedule: Q01DX005 (ip), vehicle: saline) was 125 and 148 % of control. Besides, the survivor count is 6 of 6 (dose: 60.0 mg/kg/injection, schedule: Q01DX005 (ip), vehicle: saline); 6 of 6 (dose: 120.0 mg/kg/injection, schedule: Q01DX005 (ip), vehicle: saline); 1 of 6 under setting [13].

`CNC(=O)OCc1c(COC(=O)NC)c(-c2ccc(F)cc2)n2c1CCC2`: the survivor count is 2 of 6 (dose: 25.0 mg/kg/injection, schedule: Q01DX009 (ip), vehicle: Klucel (hydroxypropylcellulose) (HPC)); 4 of 6 (dose: 50.0 mg/kg/injection, schedule: Q01DX009 (ip), vehicle: Klucel (hydroxypropylcellulose) (HPC)); 0 of 6 under setting [14]; 0 of 6 (dose: 200.0 mg/kg/injection, schedule: Q01DX009 (ip), vehicle: Klucel (hydroxypropylcellulose) (HPC)).

In the case of `CC(=O)c1c(OCC(O)CN2CCCCC2)ccc2c(C)cc(=O)oc12` (configuration not stated), the survivor count under setting [8] is recorded as 0 of 6.

Regarding `CCOc1ccc(/C=N/NC(=O)C(=O)N/N=C/c2ccc(OCC)c(OCC)c2)cc1OCC`, the T/C was 92 and 126 % of control (dose: 12.5 mg/kg/injection, schedule: Q01DX005 (ip), vehicle: Klucel (hydroxypropylcellulose) (HPC), evaluated on day 20); 86 and 94 % of control (dose: 12.5 mg/kg/injection, schedule: Q01DX005 (ip), vehicle: Klucel (hydroxypropylcellulose) (HPC), evaluated on day 30); 137 % of control (dose: 25.0 mg/kg/injection, schedule: Q01DX005 (ip), vehicle: Klucel (hydroxypropylcellulose) (HPC), evaluated on day 20); 87 and 88 % of control (dose: 25.0 mg/kg/injection, schedule: Q01DX005 (ip), vehicle: Klucel (hydroxypropylcellulose) (HPC), evaluated on day 30); 91 and 135 % of control (dose: 50.0 mg/kg/injection, schedule: Q01DX005 (ip), vehicle: Klucel (hydroxypropylcellulose) (HPC), evaluated on day 20); 86 % of control (dose: 50.0 mg/kg/injection, schedule: Q01DX005 (ip), vehicle: Klucel (hydroxypropylcellulose) (HPC), evaluated on day 30). In addition, the survivor count (dose: 25.0 mg/kg/injection, schedule: Q01DX005 (ip), vehicle: Klucel (hydroxypropylcellulose) (HPC)) is 6 of 6; the survivor count under setting [10] is on record as 6 of 6; the survivor count under setting [14] is given as 6 of 6.

Turning to `Nc1ccc(S(=O)(=O)Nc2cnc3c(Cl)cccc3n2)cc1`, the survivor count by setting is: (dose: 100.0 mg/kg/injection, schedule: Q01DX005 (ip), vehicle: DMSO) 3 of 6; under setting [15], 1 of 6; (dose: 300.0 mg/kg/injection, schedule: Q01DX005 (ip), vehicle: DMSO) 0 of 6; (dose: 400.0 mg/kg/injection, schedule: Q01DX005 (ip), vehicle: DMSO) 0 of 6 and 1 of 6; (dose: 800.0 mg/kg/injection, schedule: Q01DX005 (ip), vehicle: DMSO) 0 of 6; (dose: 1200.0 mg/kg/injection, schedule: Q01DX005 (ip), vehicle: DMSO) 0 of 6. Besides, the T/C under setting [15] is 130 % of control.
